In PubChem BioAssay AID1332 (Southern Research Institute, 2008):
≈ marks a conversion by molar mass, not a printed value. Some of the results follow. Shown are side measurements of this screen, not its main read-out; they come without a call.

Assay: Confirmatory growth inhibition assay, mycobacterium tuberculosis h37rv, with cytotoxicity (AID 1332);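 for CC50: Vero cells exposed to compounds for 72 hours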;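 for IC50: bacteria incubated 7 days before adding Alamar blue readout reagent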
Conditions: M. tuberculosis H37Rv growth inhibition; CC50: measured here: Vero cell cytotoxicity; IC50: measured here: IC50 H37Rv replicates
Work on CC(Cc1ccccc1)NCCC(c1ccccc1)c1ccccc1 (stereo unspecified) yielded a CC50 of over 6 µg/mL and an IC50 of 2.96 µg/mL (≈ 8.99 µM). CCC(C)[C@H]1O[C@]2(C=C[C@@H]1C)C[C@@H]1C[C@@H](C/C=C(\C)C(O[C@H]3C[C@H](OC)C(O[C@H]4C[C@H](OC)[C@@H](O)[C@H](C)O4)[C@H](C)O3)[C@@H](C)/C=C/C=C3\CO[C@@H]4[C@H](O)C(C)=C[C@@H](C(=O)O1)[C@]34O)O2 (stereo partly specified) showed a CC50 of over 6 µg/mL and an IC50 of 2.16 µg/mL (≈ 2.47 µM). With CC(=O)Oc1cc(C(F)(F)F)ccc1C(=O)O the IC50 was over 20 µg/mL. Compound NCCc1c[nH]c2ccc(O)cc12 has an IC50 of over 20 µg/mL. CS(=O)(=O)c1ccc([C@@H](O)[C@@H](CO)NC(=O)C(Cl)Cl)cc1 gave an IC50 of 1.15 µg/mL (≈ 3.24 µM). Work on CC(C)Cc1ccc([C@H](C)C(=O)O)cc1 yielded an IC50 of over 20 µg/mL. For O=c1[nH]c(=O)n(C2C[C@H](O)[C@@H](CO)O2)cc1C(F)(F)F (stereo partly specified), the CC50 was over 6 µg/mL and the IC50 was over 20 µg/mL. For CN1CCN(CCCN2c3ccccc3Sc3ccc(S(=O)(=O)N(C)C)cc32)CC1, the CC50 was over 6 µg/mL and the IC50 was over 20 µg/mL. With COc1c(O[C@@H]2O[C@H](CO)[C@@H](O)[C@H](O)[C@H]2O)cc2c(c1OC)-c1ccc(SC)c(=O)cc1C(NC(C)=O)CC2 (stereo partly specified) the IC50 was over 20 µg/mL. Work on CC(=O)O[C@]1(C(C)=O)CC[C@H]2[C@@H]3C=C(C)C4=CC(=O)CC[C@@H]4[C@H]3CC[C@@]21C yielded an IC50 of over 20 µg/mL. In the case of COc1ccc(C[C@H]2NC[C@H](O)[C@H]2OC(C)=O)cc1, the CC50 is reported as 0.026 µg/mL (≈ 0.098 µM) and the IC50 is reported as over 20 µg/mL. C#C[C@]1(O)CC[C@H]2[C@@H]3CCC4=CC(=O)CC[C@@H]4[C@H]3CC[C@@]21C gave an IC50 of over 20 µg/mL. With COC(=O)C1=C(C)NC(C)=C(C(=O)OC)C1c1ccccc1[N+](=O)[O-] the CC50 was over 6 µg/mL and the IC50 was over 20 µg/mL. In the case of COc1ccc2c(c1)[nH]c1c(C)nccc12, the CC50 is reported as 5.95 µg/mL (≈ 28.1 µM) and the IC50 is reported as over 20 µg/mL. For CCN(CC)CCOC(=O)C1(c2ccc([N+](=O)[O-])cc2)CCCC1, the IC50 was over 20 µg/mL. Compound Clc1ccccc1CN1CCc2sccc2C1 has an IC50 of over 20 µg/mL. In the case of Nc1ccc(O)c(C(=O)O)c1, the IC50 is reported as over 20 µg/mL. Compound Cc1cc(NC(=O)C2=C(O)c3ccccc3S(=O)(=O)N2C)no1 has an IC50 of over 20 µg/mL. Cc1cc(C(C)(C)CC(C)(C)C)ccc1OCCOCC[N+](C)(C)Cc1ccccc1 showed an IC50 of 3.08 µg/mL. For CO[C@@H]1[C@@H](O[C@@H]2O[C@H](C)[C@@H](O[C@H]3C[C@@](C)(O)[C@@H](O)[C@H](C)O3)[C@H](N(C)C)[C@H]2O)[C@@H](CC=O)C[C@@H](C)[C@@H](O[C@H]2CC[C@H](N(C)C)[C@@H](C)O2)/C=C/C=C/C[C@@H](C)OC(=O)C[C@H]1O, the IC50 was over 20 µg/mL. CO[C@@]1(NC(=O)C2SC(=C(C(N)=O)C(=O)O)S2)C(=O)N2C(C(=O)O)=C(CSc3nnnn3C)CS[C@@H]21 (stereo partly specified) gave an IC50 of over 20 µg/mL. Work on CN(C)CCCN1c2ccccc2CCc2ccc(Cl)cc21 yielded a CC50 of over 6 µg/mL and an IC50 of 4.91 µg/mL (≈ 15.6 µM). For CCN(CC)CCCC(C)Nc1c2ccc(Cl)cc2nc2ccc(OC)cc12 (stereo unspecified), the CC50 was 1.65 µg/mL (≈ 4.13 µM) and the IC50 was over 20 µg/mL. CCCCCCCCCCCCCCCC[N+](C)(C)CCN(Cc1ccc(OC)cc1)c1ncccn1 gave an IC50 of 0.806 µg/mL. CCNC1(c2cccs2)CCCCC1=O (stereo unspecified) showed an IC50 of over 20 µg/mL. Compound CC(C)NCC(O)c1ccc(NS(C)(=O)=O)cc1 (stereo unspecified) has an IC50 of over 20 µg/mL. Work on C#C[C@]1(O)CC[C@H]2[C@@H]3CCc4cc(OC)ccc4[C@H]3CC[C@@]21C yielded an IC50 of over 20 µg/mL. In the case of CCC1(c2cccc(O)c2)CCCCN(C)C1 (stereo unspecified), the IC50 is reported as over 20 µg/mL. CCN1C[C@]2(COC)CC[C@H](O)[C@]34C1[C@](O)([C@@H](OC)[C@H]23)[C@@]1(O)C[C@H](OC)[C@H]2C[C@@H]4[C@@H]1[C@H]2OC gave an IC50 of over 20 µg/mL. For CS(=N)(=O)CC[C@H](N)C(=O)O (stereo partly specified), the IC50 was over 20 µg/mL. Compound CC(C)(CO)[C@@H](O)C(=O)NCCCO has an IC50 of over 20 µg/mL. With CCN1C[C@@]2(COC)C3[C@@H](OC)[C@H]4[C@@H]1[C@@]3(C1C[C@@]3(O)[C@H](OC(=O)c5ccccc5)C1[C@]4(OC(C)=O)[C@@H](O)[C@H]3OC)[C@@H](OC)C[C@H]2O (stereo partly specified) the IC50 was over 20 µg/mL. For CC[C@H]1CN2CCc3cc(OC)c(OC)cc3[C@@H]2C[C@@H]1C[C@H]1NCCc2cc(OC)c(OC)cc21, the CC50 was 0.039 µg/mL (≈ 0.0811 µM) and the IC50 was over 20 µg/mL. Compound CN=C(NC#N)NCCSCc1nc[nH]c1C has an IC50 of over 20 µg/mL. For COc1cc2c(cc1OC)-c1cc3ccc(OC)c(OC)c3c[n+]1CC2, the IC50 was over 20 µg/mL. With COc1cc([C@@H]2c3cc4c(cc3[C@H](O)[C@H]3COC(=O)[C@H]23)OCO4)cc(OC)c1OC the CC50 was under 0.023 µg/mL and the IC50 was over 20 µg/mL. With CN1CCN(C(c2ccccc2)c2ccc(Cl)cc2)CC1 (stereo unspecified) the IC50 was over 20 µg/mL. For O=C(N/N=C/c1ccc([N+](=O)[O-])o1)c1ccc(O)cc1, the CC50 was 3.79 µg/mL (≈ 13.8 µM) and the IC50 was 0.611 µg/mL (≈ 2.22 µM). With O=C1C=CC(=O)c2c1ccc1c2ccc2ccccc21 the CC50 was 1.29 µg/mL (≈ 4.98 µM) and the IC50 was 1.77 µg/mL (≈ 6.85 µM). CCC1C(=O)OCC1Cc1cncn1C (stereo unspecified) showed an IC50 of over 20 µg/mL. In the case of CCC(=O)[C@@]1(C)[C@H](C)C[C@H]2[C@@H]3CCC4=CC(=O)C=C[C@]4(C)[C@H]3[C@@H](O)C[C@@]21C, the IC50 is reported as over 20 µg/mL. CC[C@H](C)[C@H]1O[C@]2(CC[C@@H]1C)C[C@@H]1C[C@@H](C/C=C(\C)[C@@H](O[C@H]3C[C@H](OC)[C@@H](O[C@H]4C[C@H](OC)[C@@H](O)[C@H](C)O4)[C@H](C)O3)[C@@H](C)/C=C/C=C3\CO[C@@H]4[C@H](O)C(C)=C[C@@H](C(=O)O1)[C@]34O)O2 showed a CC50 of over 6 µg/mL and an IC50 of 1 µg/mL (≈ 1.15 µM). For CNCCC=C1c2ccccc2CCc2ccccc21, the CC50 was over 6 µg/mL and the IC50 was 8.05 µg/mL (≈ 30.5 µM). In the case of C[C@H]1[C@H](NC(=O)/C(=N\OC(C)(C)C(=O)O)c2csc(N)n2)C(=O)N1S(=O)(=O)O, the IC50 is reported as over 20 µg/mL. Cc1ccc(/C(=C\CN2CCCC2)c2ccccn2)cc1 showed an IC50 of over 20 µg/mL. CC(C)(O/N=C(\C(=O)N[C@@H]1C(=O)N2C(C(=O)[O-])=C(C[n+]3ccccc3)CS[C@H]12)c1csc(N)n1)C(=O)O showed an IC50 of over 20 µg/mL. In the case of C=C1[C@@H]2CC[C@H]3[C@]4(C)C[C@H](O[C@H]5O[C@H](CO)[C@@H](OS(=O)(=O)O)[C@H](OS(=O)(=O)O)[C@H]5OC(=O)CC(C)C)C[C@@H](C(=O)O)[C@H]4CC[C@]3(C2)[C@H]1O, the IC50 is reported as over 20 µg/mL. C[C@]12C=CC(=O)C=C1CC[C@@H]1[C@@H]2C(=O)C[C@@]2(C)[C@H]1CC[C@]2(O)C(=O)CO showed an IC50 of over 20 µg/mL. CS(=O)(=O)Nc1ccc([N+](=O)[O-])cc1Oc1ccccc1 gave an IC50 of over 20 µg/mL. Compound COc1cc(C)nc(-n2nc(C)cc2OC)n1 has an IC50 of over 20 µg/mL. Work on CCn1cc(C(=O)O)c(=O)c2cc(F)c(N3CCNC(C)C3)c(F)c21 (stereo unspecified) yielded an IC50 of 0.198 µg/mL (≈ 0.562 µM).
